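Whole-cell growth test on Mycobacterium tuberculosis, read after 3 days in glucose-containing 7H9 medium; the read-out is not stated. Compounds at 50 µM. The record gives no direction; compounds that gave an IC50 in retests scored well above the rest, so higher reads as more growth inhibition. Size under these conditions: about 69,000 compounds, about 760 of them at 50% or above in at least one test.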

Values are the deposited “Percent Effect”, in %.
The record does not define 0% and 100%; most values in the screen are far below 50% and negative numbers occur (in some assays of this library far below -100).
This is an unselected part of the compounds tested.
Two or more numbers in one place are separate tests of the same structure; such repeats can differ widely.

* CN1CCCCC1c1ccc(-n2ccnc2)nc1 (centres undefined) : 25.21%
* CCN(Cc1nccn1C)C(=O)c1ccc(NCCc2c[nH]cn2)nc1 : -3.588% & -49.48%
* COc1ccc(CC(=O)N2CCN(Cc3ccco3)C[C@H]2C)cc1OC : -13.95%
* Cc1ncc(CN)c(-c2cn(C)c3ccccc23)n1 : 34.56%
* COC1CCN(S(=O)(=O)N2CCCC2c2ccco2)CC1 (centres undefined) : 14.98% & -0.009367%
* O=C(NC1CC1)N1CC[C@H](OCC2CC2)[C@@H]1Cc1cccnc1.O=C(O)C(F)(F)F : -3.879% & 18.39%
* COc1ccc2ncn(Cc3ncc[nH]3)c(=O)c2c1 : 8.137%
* NC(=O)CN1CCOCC(Cc2ccccc2Cl)C1 (centres undefined) : 6.911%
* c1cc(-c2nc(CN3CCn4c(nnc4C4CC4)C3)cs2)cs1 : 4.831%
* COC(=O)[C@@H]1CN(C(=O)NC(C)C)CCN1S(=O)(=O)c1ccccc1 : -19.35% & -0.9796%
* Cc1ncc2c(n1)CCCC2NC(=O)c1ccccc1C(=O)O (centres undefined) : 7.166%
* CC(C)(C)c1cc(CNC(=O)c2cc(COc3ccccc3)[nH]n2)[nH]n1 : 8.696%
* [H][C@]12CC[C@]([H])(CN(c3ncccn3)C1)N(CCOC)C2=O : -34.06%
* CC(C)CNC(=O)c1cccc(Oc2ccc3nncn3n2)c1 : -22.88%
* CCO[C@H]1CCN(S(=O)(=O)c2cn(C)cn2)[C@H]1Cc1ccccc1.O=C(O)C(F)(F)F : 3.086% & 23.21%
* Cn1c(N)c2c(=O)n(C)c(-c3ccccc3)cc2c(C#N)c1=O : 16.53% & 1.429%
* CN(CC(=O)N(C)C)Cc1ccc(C#N)cc1F : -35.09%
* CC(C(=O)N1CCOCC1)N1CCc2cncnc2C1 (centres undefined) : -24.15%
* O=C(O)C(F)(F)F.O=C(O)C(F)(F)F.[H][C@@]12CN(Cc3ccncc3)C[C@H](C(=O)N3CCCCO3)[C@]1([H])CCO2 : 0.9188% & -5.506%
* CCn1nc(CC(C)C)cc1C(=O)N1CCOCC(O)C1 (centres undefined) : 9.682%
* CCC(O)CN1CCN(C(=O)c2cccc(CC#N)c2)CC1 (centres undefined) : -30%
* O=C(O)C(F)(F)F.[H][C@@]12CCN(c3ncccn3)[C@@]1([H])CCN2S(=O)(=O)c1cccc(C)c1 : 0.1671% & -23.59%
* [H][C@]12C[C@@H](C(=O)NCCOC)CO[C@@]1([H])CCN(Cc1cccs1)C2 : -19.49%
* O=C(NCc1ccccn1)Nc1ccc2[nH]nnc2c1 : 12.08% & -4.309%
* CCN(CCn1c(=O)oc2ccccc21)CC1CCOCC1 : 11.01%
* c1csc(-c2nc(CNC3CCc4ncnn4C3)co2)c1 (centres undefined) : -13.8%
* Cc1cc(C(N)=O)ccc1NC(=O)c1nc(N2CCCCC2)ncc1Cl : -22.18%
* Cc1c(C(=O)O)sc2nc(Cc3ccccc3)nc(N)c12 : -36.85%
* CCc1noc(C2CCCCN2C(=O)c2cccnc2)n1 (centres undefined) : -30.35%
* CCCNC(=O)c1cc2c(s1)CCN2C(=O)c1ccccc1 : -33.41%
* O=C(C1CCCC1)N1CCn2c(nnc2C2CCCNC2)C1 (centres undefined) : 16.68%
* Cc1cc(C)n(CC(=O)N2CCC(c3nc(C)no3)CC2)n1 : 0.2244% & -4.797%
* CC(Cc1cccc(F)c1)C(=O)NS(=O)(=O)c1ccc2c(c1)OCCO2 (centres undefined) : -13.8% & -31.35%
* CC1CN(c2ncnc3c2cnn3C)CCN1c1nccs1 (centres undefined) : 24.49%
* [H][C@@]12OCCN(C(=O)C3CCOCC3)[C@@]1([H])CC[C@@H]2OCc1ccncc1 : 28.57%
* Cc1ccc(-c2nccn2-c2ccc(OC3CCN(C)CC3)cc2)o1 : -0.2563% & -1.159%
* Cc1cc(C)n(CCNC(=O)c2cc(C3CC3)n[nH]2)n1 : -19.88%
* CCOCC1CN(c2ncccn2)Cc2cnn(CC3CCOCC3)c21 (centres undefined) : -25.81%
* OCCCN1CCc2[nH]nc(C(c3ccccc3)c3ccccc3)c2C1 : 19.53%
* Cc1nc(CC(=O)N2CCc3nc(-c4cnccn4)nc(O)c3C2)cs1 : -1.913%
* Cc1nc(-c2cccnc2)ncc1C(=O)N1CCCC(N(C)C)CC1 (centres undefined) : -15.61%
* CCC1c2ccsc2CCN1C(=O)NCc1cccnc1N(C)C (centres undefined) : 1.633%
* CN(C)c1ccc(NC(=O)CN2CCS(=O)(=O)CC2)cn1 : -5.173%
* Cc1nn(C)c2ncnc(N3CCCC(OCc4cccnc4)C3)c12 (centres undefined) : -7.775%
* Cc1ccc(CS(=O)(=O)N2Cc3c(CN(C)C)nn(C)c3C2)cc1.O=C(O)C(F)(F)F : 8.795%
* O=C(Nc1cnn(CCN2CCOCC2)c1)c1ccccn1 : -50.17%
* Cc1sc(-c2ccco2)nc1C(=O)NCC1CCOC1 (centres undefined) : 9.07%
* CN(C)CCOc1ccc(CNC(=O)c2cccc3[nH]ncc23)cc1 : -14.97%
* Cc1cc(C)n(C2CCCN(C(=O)Cc3csc(C)n3)C2)n1 (centres undefined) : -7.748%
* Cc1[nH]nc(CCC(=O)NCC2CCN(C3CCCCC3)C2)c1C (centres undefined) : 3.101%
* CN(C)Cc1noc2c1CN(Cc1ccc[nH]1)CC2 : 17.21%
* Cl.Cn1ccnc1CNC(=O)c1cncc(C2CCNCC2)n1 : -4.053%
* COc1ccc(CN2CCC3(CC2)CCN(CC(C)C)C3=O)cc1.O=C(O)C(F)(F)F : 13.6%
* Cc1nc(CCC(=O)NCC(N)=O)cc(C2CCNCC2)n1 : 17.67%
* CN(CC(=O)Nc1ccncc1)C1CCCN(c2cccnn2)C1 (centres undefined) : -32.39%

Once more, the final 4:

structure,effect
Cl.Cn1ccnc1CNC(=O)c1cncc(C2CCNCC2)n1,-4.053
COc1ccc(CN2CCC3(CC2)CCN(CC(C)C)C3=O)cc1.O=C(O)C(F)(F)F,13.6
Cc1nc(CCC(=O)NCC(N)=O)cc(C2CCNCC2)n1,17.67
CN(CC(=O)Nc1ccncc1)C1CCCN(c2cccnn2)C1 (centres undefined),-32.39

Data taken from ChEMBL document CHEMBL3988442, “University of Dundee, Small-Polar-MMV Screening Library” (2021).